Holding throughout (test): odorant receptor activation (CRE luciferase / Renilla) (fold of no-odor wells); higher = more activation
Holding throughout (conditions): 100 µM

For assay [1], the system named is OR2M3 clone 1054.
The subject of assay [2] is OR2M4 clone 1053.
Assay [3] relates to OR2M7 F35L/V78A/C178F clone 1378.
Assay [4] has as its system OR2M7 F35L/V78A/C178F/D191N clone 1401.
For assay [5], the system named is OR2M7 clone 1377.
Assay [6] has as its system OR2T10 clone 1047.
The subject of assay [7] is OR2T11 C119R/Q309R clone 1050.
In assay [8] the test system is OR2T11 C119R/Q309R clone 1051.
Assay [9] concerns OR2T2 clone 1561.
The subject of assay [10] is OR2T29 clone 1545.
Assay [11] relates to OR2T3 clone 1397.
For assay [12], the system named is OR2T34 clone 1049.
The subject of assay [13] is OR2T35 V31I clone 1562.
Assay [14] deals with OR2T4 clone 1347.
Assay [15] has as its system OR2T5 clone 1033.
The subject of assay [16] is OR2L8 clone 1515.
Assay [17] concerns OR2M2 R220G/C235R clone 1494.
Assay [18] has as its system OR2M5 clone 1167.
For assay [19], the system named is OR2S2 clone 1462.
Assay [20] concerns OR2T1 P132L clone 1474.

Values joined by “and” are separate entries in the source; they are usually repeats but may differ in a detail not shown here. Equal values may be shown once. The list shows a part of the results. Single wells; the ratio to wells without odorant was worked out here, and repeats agree poorly.

Consider `CCCCCCC=O` [heptaldehyde], for which the odorant receptor activation in assay [1] is 1.17 and 1.5; in assay [2], 1.03 and 1.16; in assay [3], 1.02 and 0.82; in [4], 1.33 and 0.563; in assay [5] it was 0.885 and 1.26; in [6] it was 1.94 and 1.05. Also, the odorant receptor activation in assay [7] is 0.781 and 1.72; in assay [8], 1.65 and 1.49; in [9] it was 0.982; in assay [10], 1.06 and 1.49; in assay [11], 1.13 and 0.751; in assay [12] it was 0.982 and 1.85. For the same compound, the odorant receptor activation in assay [13] was 0.951; in assay [14], 0.814 and 1.2 and 0.744; in [15] it was 0.726 and 1.22.
With `O=CCc1ccccc1` [phenyl acetaldehyde], the odorant receptor activation in assay [16] is 1.12; in assay [17], 0.886; in assay [1] it was 1.18; in assay [2], 1.14; in assay [18], 1.08; in assay [3] it was 2.01. For the same compound, the odorant receptor activation was found to be 1.5 in [4]; 2.11 in assay [5]; 1.19 in [19]; 1.56 in assay [20]; 1.48 in assay [6]; 1.45 in [7]. Further, the odorant receptor activation in assay [8] came out at 0.812; in assay [9] it was 3.06; in [10], 1.25; in assay [11] it was 1.64; in assay [12] it was 1.33; in assay [13], 1.44. Moreover, the odorant receptor activation in [14] stood at 1.17; in [15], 1.16.
`CC=Cc1ccc(O)c(OC)c1` [isoeugenol]: the odorant receptor activation was 1.79 and 2.05 in assay [16]; 1.1 and 1.92 in assay [17]; 1.26 in assay [1]; 0.639 in assay [2]; 2.44 in assay [18]; 1.73 in assay [3]. The odorant receptor activation was 1.07 in assay [4]; 1.53 in assay [5]; 1.38 and 2.57 in [20]; 1 in [6]; 1.84 in [7]; 1.73 in assay [8]. The odorant receptor activation in [9] was 5.59; in assay [10], 1.05 and 2.88; in [11], 1.36; in assay [12], 3.07; in assay [13], 0.229; in [14], 1.17 and 1.67. The compound also displayed an odorant receptor activation in assay [15] of 6.52.
For `CC(=O)C(C)=O` [diacetyl], the odorant receptor activation in [16] was 1.38; in [17] it was 1.12; in [1], 0.867; in assay [2], 0.956; in [18], 1.03; in assay [3], 1.19. Further, the odorant receptor activation stood at 0.993 in assay [4]; 0.974 in assay [5]; 1.35 in [19]; 1.31 in assay [20]; 1.19 in [6]; 1.08 in [7]. Moreover, the odorant receptor activation came to 0.89 in assay [8]; 0.935 in [9]; 1.85 in assay [10]; 1.15 in assay [11]; 1.01 in assay [12]; 0.85 in assay [13]. Besides, the odorant receptor activation in [14] was found to be 1.36; in assay [15], 0.822.
As to `CCCCCCCCCC=O` [decyl aldehyde], the odorant receptor activation in [16] turned out to be 1.27; in assay [17], 1.23; in assay [1], 0.913; in [2] it was 1.11; in assay [18] it was 1.21; in [3], 1.57. Moreover, the odorant receptor activation in assay [4] is 1.14; in assay [5] it was 1.44; in assay [19], 1.25; in [20], 1.3; in assay [6] it was 1.31; in assay [7], 1.16. The odorant receptor activation in assay [8] amounted to 1.18; in [9], 1.08; in [10] it was 1.6; in assay [11], 1.22; in assay [12], 1.18; in [13], 0.943. The odorant receptor activation in [14] came out at 1.64; in assay [15], 1.08.
Regarding `CC(C)(C)c1ccc(CCC=O)cc1` [bourgeonal], the odorant receptor activation came out at 1.34 in assay [16]; 0.744 in [17]; 0.853 in [1]; 0.779 in [2]; 0.618 in [18]; 0.176 in assay [3]. Further, the odorant receptor activation in assay [4] was found to be 0.172; in [5] it was 0.214; in assay [19] it was 0.903; in assay [20], 0.776; in assay [6] it was 0.888; in assay [7] it was 0.928. Also, the odorant receptor activation in assay [8] came to 1.08; in [10], 0.858; in assay [11] it was 0.18; in [12], 0.693; in assay [14], 0.931; in [15] it was 0.861.
`CC(C)C=O` [isobutyraldehyde]: the odorant receptor activation in assay [16] was 0.738 and 0.918; in assay [17] it was 1.01 and 1.02; in [1], 1.09; in assay [2], 0.644; in assay [18], 1.4; in assay [3], 0.832. Further, the odorant receptor activation in [4] was 0.702; in assay [5], 1.08; in [19] it was 0.97 and 1.13; in assay [20], 1.15 and 1.16; in assay [6], 0.842; in assay [7] it was 0.713. The odorant receptor activation is 1.06 in [8]; 0.873 in [9]; 1.12 and 1.1 in [10]; 0.983 in assay [11]; 1.32 in [12]; 0.094 in [13]. The odorant receptor activation in assay [14] is 0.855 and 0.811; in assay [15], 0.683.

The record behind these values is the odorant receptor screen of Mainland et al. (2015).
